For one substance, binding results are on record in publication PMC8994742.

Test [1] concerns the target T1, mKvβ2.1CFP (mouse) (UniProt P62482).
T1 sequence: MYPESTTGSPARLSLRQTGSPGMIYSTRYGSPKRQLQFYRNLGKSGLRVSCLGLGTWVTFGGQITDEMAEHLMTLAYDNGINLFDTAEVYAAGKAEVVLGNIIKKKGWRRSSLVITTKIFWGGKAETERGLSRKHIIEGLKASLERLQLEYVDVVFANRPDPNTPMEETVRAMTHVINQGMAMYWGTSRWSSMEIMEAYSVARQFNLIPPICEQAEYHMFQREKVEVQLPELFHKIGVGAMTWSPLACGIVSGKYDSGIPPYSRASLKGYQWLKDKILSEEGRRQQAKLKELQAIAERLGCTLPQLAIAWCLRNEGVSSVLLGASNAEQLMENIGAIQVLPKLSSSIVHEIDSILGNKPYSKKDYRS
Nature of the test: co-IP; lysates of HEK 293 cells transfected with Kvβ1.1CFP or Kvβ2.1CFP (150 mM NaCl, 50 mM HEPES, 1% Triton X-100, pH 7.4); anti-GFP antibody crosslinked to protein A Sepharose, 2 h at RT; immunoblot against the endogenous partner. (A western blot detects proteins with antibodies after separation by electrophoresis.)

Test [2] concerns the target T2, mKvβ1.1CFP (mouse) (UniProt P63143).
T2 sequence: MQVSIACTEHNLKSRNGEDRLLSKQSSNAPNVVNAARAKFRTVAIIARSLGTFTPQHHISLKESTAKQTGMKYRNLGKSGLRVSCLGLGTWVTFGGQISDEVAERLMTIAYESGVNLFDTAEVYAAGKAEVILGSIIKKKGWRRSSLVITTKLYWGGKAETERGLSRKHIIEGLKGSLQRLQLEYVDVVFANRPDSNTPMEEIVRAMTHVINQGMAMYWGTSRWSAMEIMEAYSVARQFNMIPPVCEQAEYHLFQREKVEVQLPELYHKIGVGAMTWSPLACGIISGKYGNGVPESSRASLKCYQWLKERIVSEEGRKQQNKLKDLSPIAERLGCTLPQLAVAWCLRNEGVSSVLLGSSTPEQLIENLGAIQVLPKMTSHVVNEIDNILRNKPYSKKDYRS
Described as above.

These are yes or no findings as the source states them, for the method shown. In cells and extracts the contact can be indirect.

On to “caveolin (human (endogenous in HEK 293))”, for which the binding result in test [1] and in test [2] was “no binding” each time.
